Isolated yield data for two substances are collected here from patent publication US20260232826A1 (Mablink Bioscience, priority 2022, published 2026).

A short description of data set [1]: general procedure: Fmoc solid-phase peptide synthesis; Rink amide; HATU/DIPEA; bromoacetic acid/diisopropylcarbodiimide (sub-monomer). To be noted: whole synthesis, on initial Fmoc-sarcosine loading.
The nature of data set [2]: general procedure: Fmoc solid-phase peptide synthesis; 2-chlorotrityl; HATU/DIPEA; bromoacetic acid/diisopropylcarbodiimide (sub-monomer). To be noted: whole synthesis, on initial Fmoc-sarcosine loading.

As to NH2-Gly-(N3)-PSAR10- CONH2, in data set [1], the isolated yield is reported as 48%.
Substance NH2-Gly(N3)-PSAR10- COOH showed an isolated yield in data set [2] of 14%.
